These results are taken from publication PMC9601806 (Foods, 2022).

End groups of sequences in plain letters are not given here.

This data set is described as follows: peptide made by a vendor. Particulars: whole synthesis, HPLC.

With DEDEQIPSLPPR, the “purity (crude or final not stated)” value came to 98%.
